Test results as given in the supplement of paper PMC10849652.
The other results are listed elsewhere or left out.

Chains of the proteins cited; added tags and fusions are not shown. Lines headed by an entry give the natural chain unless they say otherwise; changes in a name come on top.
UniProt O43615: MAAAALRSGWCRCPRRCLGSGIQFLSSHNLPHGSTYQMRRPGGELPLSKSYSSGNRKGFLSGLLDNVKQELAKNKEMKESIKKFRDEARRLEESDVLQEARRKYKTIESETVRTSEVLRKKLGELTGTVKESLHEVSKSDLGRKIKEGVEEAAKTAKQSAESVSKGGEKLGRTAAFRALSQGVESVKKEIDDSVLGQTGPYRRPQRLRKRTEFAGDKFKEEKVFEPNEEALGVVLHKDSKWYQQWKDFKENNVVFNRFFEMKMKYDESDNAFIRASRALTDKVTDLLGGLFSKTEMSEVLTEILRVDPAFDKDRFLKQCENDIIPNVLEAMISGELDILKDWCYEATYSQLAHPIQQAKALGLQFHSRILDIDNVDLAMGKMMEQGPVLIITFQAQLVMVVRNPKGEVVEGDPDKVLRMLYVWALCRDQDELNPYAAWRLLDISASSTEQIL
UniProt Q9Y2W1: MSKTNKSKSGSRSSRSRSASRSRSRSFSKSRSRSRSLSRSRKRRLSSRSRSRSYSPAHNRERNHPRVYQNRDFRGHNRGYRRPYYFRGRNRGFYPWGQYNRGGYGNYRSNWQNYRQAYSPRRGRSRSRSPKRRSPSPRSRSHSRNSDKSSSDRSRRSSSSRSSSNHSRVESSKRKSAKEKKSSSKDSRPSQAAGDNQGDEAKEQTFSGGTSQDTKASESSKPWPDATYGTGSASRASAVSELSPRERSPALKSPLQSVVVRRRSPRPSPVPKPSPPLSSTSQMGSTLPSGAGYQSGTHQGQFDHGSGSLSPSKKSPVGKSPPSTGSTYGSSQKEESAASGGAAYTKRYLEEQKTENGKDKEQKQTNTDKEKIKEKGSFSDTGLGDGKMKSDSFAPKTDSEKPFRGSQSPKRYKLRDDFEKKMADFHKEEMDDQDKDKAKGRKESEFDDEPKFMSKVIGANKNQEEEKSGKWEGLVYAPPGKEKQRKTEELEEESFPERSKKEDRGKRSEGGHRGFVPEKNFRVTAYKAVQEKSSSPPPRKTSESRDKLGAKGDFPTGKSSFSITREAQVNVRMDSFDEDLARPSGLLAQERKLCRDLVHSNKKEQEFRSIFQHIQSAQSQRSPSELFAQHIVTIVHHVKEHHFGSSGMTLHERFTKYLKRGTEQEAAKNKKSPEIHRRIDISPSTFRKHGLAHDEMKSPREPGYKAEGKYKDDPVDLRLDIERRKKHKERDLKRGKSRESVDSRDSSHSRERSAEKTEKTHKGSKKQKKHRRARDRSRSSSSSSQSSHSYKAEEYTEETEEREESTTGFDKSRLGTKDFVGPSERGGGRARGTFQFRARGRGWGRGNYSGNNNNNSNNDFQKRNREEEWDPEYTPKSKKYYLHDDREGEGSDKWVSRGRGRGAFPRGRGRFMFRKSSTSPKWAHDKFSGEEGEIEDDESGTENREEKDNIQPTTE
UniProt Q8WUY1: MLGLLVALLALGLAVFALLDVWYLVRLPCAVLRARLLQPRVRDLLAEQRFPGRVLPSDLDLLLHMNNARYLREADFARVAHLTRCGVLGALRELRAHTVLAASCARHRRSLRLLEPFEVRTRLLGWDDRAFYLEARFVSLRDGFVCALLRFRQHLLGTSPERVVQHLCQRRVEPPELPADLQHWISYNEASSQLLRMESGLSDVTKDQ
UniProt Q9Y5J7: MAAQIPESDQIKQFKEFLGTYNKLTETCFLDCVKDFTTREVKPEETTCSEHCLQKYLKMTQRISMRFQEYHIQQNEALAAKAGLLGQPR
UniProt Q9UKI8: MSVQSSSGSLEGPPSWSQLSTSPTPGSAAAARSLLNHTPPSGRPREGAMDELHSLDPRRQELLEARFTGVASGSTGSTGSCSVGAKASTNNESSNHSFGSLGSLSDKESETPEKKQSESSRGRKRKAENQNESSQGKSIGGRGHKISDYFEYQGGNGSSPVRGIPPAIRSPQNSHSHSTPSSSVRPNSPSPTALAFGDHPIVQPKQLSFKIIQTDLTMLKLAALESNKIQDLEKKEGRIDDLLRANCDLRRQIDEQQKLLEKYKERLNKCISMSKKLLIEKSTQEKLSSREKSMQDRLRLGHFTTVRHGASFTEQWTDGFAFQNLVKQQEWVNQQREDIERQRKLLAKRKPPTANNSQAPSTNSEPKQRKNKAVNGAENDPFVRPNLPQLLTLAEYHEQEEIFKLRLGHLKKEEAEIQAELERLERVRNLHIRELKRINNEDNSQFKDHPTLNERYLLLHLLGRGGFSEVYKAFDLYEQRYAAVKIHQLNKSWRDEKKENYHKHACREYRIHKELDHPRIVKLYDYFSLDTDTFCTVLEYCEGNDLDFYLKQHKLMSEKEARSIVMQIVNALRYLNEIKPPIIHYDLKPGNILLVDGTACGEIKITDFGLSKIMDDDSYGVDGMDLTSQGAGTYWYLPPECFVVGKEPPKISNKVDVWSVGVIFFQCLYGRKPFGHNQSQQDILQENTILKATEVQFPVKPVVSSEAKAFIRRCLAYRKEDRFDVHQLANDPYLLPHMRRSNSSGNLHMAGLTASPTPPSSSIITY
UniProt Q6PL24: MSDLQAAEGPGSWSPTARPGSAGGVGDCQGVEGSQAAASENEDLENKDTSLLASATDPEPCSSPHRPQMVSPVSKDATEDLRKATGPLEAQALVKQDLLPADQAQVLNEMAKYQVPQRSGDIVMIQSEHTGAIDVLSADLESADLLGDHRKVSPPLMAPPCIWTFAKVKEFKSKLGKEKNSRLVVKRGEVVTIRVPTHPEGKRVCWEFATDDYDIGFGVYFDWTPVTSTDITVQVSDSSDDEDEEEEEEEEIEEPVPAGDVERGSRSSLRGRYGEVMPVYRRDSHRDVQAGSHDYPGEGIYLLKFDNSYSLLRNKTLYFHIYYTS
UniProt Q99595: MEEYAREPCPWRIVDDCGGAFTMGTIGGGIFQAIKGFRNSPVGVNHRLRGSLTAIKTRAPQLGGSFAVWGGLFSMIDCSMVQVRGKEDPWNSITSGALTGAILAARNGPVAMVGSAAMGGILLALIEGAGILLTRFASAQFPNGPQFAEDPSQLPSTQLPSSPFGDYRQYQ
UniProt Q8IYQ7: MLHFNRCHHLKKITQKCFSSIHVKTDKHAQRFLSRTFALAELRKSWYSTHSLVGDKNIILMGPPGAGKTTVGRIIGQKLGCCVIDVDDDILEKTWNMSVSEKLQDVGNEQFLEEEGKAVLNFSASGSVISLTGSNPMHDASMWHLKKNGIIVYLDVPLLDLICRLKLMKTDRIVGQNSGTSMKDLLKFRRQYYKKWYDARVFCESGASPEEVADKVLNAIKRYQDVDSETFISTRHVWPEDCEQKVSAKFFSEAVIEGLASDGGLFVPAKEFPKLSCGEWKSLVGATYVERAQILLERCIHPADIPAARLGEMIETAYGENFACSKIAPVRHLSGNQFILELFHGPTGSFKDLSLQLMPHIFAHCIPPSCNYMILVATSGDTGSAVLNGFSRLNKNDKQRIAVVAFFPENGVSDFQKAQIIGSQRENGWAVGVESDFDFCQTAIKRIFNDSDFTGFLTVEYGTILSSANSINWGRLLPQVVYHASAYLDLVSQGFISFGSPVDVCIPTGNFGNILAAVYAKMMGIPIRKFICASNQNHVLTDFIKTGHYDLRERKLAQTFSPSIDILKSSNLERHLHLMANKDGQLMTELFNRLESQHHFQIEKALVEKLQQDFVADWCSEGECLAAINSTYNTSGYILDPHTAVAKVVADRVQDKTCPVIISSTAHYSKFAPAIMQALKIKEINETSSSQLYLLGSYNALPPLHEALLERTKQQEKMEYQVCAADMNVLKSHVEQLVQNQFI
UniProt P55061, whole entry, looked up: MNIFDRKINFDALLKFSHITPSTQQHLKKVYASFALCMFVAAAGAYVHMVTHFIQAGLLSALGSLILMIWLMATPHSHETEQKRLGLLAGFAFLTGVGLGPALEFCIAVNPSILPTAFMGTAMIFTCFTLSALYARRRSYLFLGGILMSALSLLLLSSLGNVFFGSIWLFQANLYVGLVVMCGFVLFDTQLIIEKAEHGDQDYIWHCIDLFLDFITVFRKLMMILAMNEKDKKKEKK
UniProt Q9P0S9: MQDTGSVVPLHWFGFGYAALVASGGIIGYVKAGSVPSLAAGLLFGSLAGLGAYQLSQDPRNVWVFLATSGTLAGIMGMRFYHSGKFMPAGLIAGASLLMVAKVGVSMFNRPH
UniProt Q9BSF4: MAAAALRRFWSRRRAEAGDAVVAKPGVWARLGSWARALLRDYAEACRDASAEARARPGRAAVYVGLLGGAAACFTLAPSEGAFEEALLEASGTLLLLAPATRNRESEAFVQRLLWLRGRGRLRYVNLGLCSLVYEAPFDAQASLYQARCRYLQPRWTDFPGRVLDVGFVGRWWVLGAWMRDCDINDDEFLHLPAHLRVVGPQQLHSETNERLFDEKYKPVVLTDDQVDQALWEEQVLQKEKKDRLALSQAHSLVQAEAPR
UniProt Q96RS0: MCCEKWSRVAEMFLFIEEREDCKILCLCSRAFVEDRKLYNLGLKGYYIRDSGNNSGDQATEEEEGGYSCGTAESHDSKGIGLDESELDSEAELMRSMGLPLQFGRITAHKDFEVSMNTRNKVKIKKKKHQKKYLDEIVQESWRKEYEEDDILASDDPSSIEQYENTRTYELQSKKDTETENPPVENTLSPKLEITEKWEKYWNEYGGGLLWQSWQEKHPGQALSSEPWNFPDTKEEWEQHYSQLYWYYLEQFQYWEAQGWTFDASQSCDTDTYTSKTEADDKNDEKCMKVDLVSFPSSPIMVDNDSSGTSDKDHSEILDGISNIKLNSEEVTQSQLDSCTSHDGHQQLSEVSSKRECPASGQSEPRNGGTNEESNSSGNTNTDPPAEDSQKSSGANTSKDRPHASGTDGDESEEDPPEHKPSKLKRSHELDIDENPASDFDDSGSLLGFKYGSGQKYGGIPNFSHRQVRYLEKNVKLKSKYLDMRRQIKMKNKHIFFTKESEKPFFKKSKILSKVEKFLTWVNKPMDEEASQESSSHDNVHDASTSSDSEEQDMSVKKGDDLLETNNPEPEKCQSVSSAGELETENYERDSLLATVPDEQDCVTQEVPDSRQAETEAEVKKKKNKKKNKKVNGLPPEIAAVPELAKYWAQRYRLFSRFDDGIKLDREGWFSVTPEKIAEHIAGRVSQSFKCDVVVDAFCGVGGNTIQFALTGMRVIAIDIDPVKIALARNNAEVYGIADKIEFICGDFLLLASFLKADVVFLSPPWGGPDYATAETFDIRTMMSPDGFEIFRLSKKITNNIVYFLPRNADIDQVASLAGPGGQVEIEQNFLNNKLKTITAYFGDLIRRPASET
UniProt P21980: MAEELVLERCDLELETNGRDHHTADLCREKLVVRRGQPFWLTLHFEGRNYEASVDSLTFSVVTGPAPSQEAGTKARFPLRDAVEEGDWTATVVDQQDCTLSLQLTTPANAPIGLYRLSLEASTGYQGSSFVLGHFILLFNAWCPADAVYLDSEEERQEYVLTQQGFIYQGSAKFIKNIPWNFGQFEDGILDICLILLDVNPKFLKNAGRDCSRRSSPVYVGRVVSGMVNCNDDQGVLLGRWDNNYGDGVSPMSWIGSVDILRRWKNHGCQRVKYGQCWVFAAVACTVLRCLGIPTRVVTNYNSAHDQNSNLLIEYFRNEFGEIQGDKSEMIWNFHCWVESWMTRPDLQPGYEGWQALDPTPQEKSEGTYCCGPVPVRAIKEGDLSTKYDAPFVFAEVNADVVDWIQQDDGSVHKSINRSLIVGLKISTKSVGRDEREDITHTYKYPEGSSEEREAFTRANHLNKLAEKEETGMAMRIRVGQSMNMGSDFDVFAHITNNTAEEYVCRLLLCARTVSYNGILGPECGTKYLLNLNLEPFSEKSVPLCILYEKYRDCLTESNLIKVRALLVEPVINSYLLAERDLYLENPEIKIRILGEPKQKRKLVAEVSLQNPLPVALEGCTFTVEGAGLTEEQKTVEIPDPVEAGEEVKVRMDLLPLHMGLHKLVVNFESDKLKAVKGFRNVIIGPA
UniProt Q96FV9: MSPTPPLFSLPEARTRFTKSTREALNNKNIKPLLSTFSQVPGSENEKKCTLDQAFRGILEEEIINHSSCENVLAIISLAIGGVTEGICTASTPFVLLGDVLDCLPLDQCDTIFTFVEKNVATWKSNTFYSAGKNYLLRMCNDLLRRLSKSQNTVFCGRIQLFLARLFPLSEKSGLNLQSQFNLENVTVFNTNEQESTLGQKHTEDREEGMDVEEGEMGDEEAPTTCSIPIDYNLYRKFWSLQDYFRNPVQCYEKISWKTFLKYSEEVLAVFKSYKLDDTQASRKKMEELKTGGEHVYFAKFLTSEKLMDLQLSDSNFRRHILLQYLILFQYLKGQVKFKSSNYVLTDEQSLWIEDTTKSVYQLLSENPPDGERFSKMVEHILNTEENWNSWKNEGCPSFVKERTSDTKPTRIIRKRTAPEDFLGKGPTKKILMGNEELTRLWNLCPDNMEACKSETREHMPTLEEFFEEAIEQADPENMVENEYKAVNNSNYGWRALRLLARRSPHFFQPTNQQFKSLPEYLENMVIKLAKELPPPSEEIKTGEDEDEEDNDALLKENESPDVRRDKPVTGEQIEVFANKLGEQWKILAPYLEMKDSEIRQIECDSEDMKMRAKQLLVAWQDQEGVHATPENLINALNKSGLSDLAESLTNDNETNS

Tests used:
Assay in all cases: log2 fold change, soluble protein after heating vs DMSO (PISA); higher = thermal stabilisation; K562 lysate, 10 uM; active = over 0.2 and 3.5 SD of the protein, either way, in both replicates (recomputed)
erlotinib = compound: C#Cc1cccc(Nc2ncnc3cc(OCCOC)c(OCCOC)cc23)c1 [erlotinib]
Procedure, shortened: (§1)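 Values give the log-two fold change in thermal stability against solvent controls, from duplicates. Crude K562 extract at 1 mg/mL protein, made by dounce homogenisation in PBS pH 7.4 with 1 mM MgCl2, was treated with 10 μM compound for 30 min. After 3 min heating across 48°C-58°C, aliquots were pooled, adjusted to 0.5% NP-40 at 4°C and centrifuged at 21,000xg for 90 min. The supernatant was measured by TMTpro 16plex LC-MS/MS with channel sums equalised.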

[1] = compound: C/C(=N\NC(=O)C1=CC(=CC=C1)S(=O)(=O)N2CCOCC2)/C3=C(C=CC(=C3)Cl)O
Procedure, shortened: as §1

[2] = compound: C1=CC(=CC=C1C2=NC3=C(N2)C=C(C=C3)C(=O)N)OC4=CC=C(C=C4)Cl
Procedure, shortened: as §1

[3] = compound: C1=CC2=C(C=CC(=C2)/C=C\3/C(=O)NC(=NCC4=CC=CS4)S3)N=C1
Procedure, shortened: as §1

[4] = compound: C1=CC2=NC=CN=C2C=C1/C=C/3\C(=O)NC(=O)S3
Procedure, shortened: as §1

[5] = compound: C1=CC=C(C=C1)C2=NC(=C(N2)C3=CC=NC=C3)C4=CC(=C(C=C4)Cl)O
Procedure, shortened: as §1

[6] = compound: C1=CC=C2C(=C1)C3=NNC4=CC=CC(=C43)C2=O
Procedure, shortened: as §1

[7] = compound: C1CCN(C1)C(=O)NC2=CC=CC(=C2)NC3=NC=C(C(=N3)NCCC4=CN=CN4)Br
Procedure, shortened: as §1

[8] = compound: C1CN(CCC1(CC2=CC=C(C=C2)Cl)N)C3=NC=NC4=C3C=CN4
Procedure, shortened: as §1

IRAK-1-4 Inhibitor I = compound: C1COCCN1CCN2C3=CC=CC=C3N=C2NC(=O)C4=CC(=CC=C4)[N+](=O)[O-] [IRAK-1-4 Inhibitor I]
Procedure, shortened: as §1

ibrutinib = compound: C=CC(=O)N1CCC[C@@H](n2nc(-c3ccc(Oc4ccccc4)cc3)c3c(N)ncnc32)C1 [ibrutinib]
Procedure, shortened: as §1

[9] = compound: CC(=O)c1cnc2ccc(-c3cc(Cl)c(O)c(Cl)c3)nc2c1N[C@H]1CC[C@H](CN(C)C)CC1
Procedure, shortened: as §1

ralimetinib = compound: CC(C)(C)Cn1c(N)nc2ccc(-c3[nH]c(C(C)(C)C)nc3-c3ccc(F)cc3)nc21 [ralimetinib]
Procedure, shortened: as §1

[10] = compound: CC(C)(O)CC(=O)NCCn1ccc2ncnc(Nc3ccc(Oc4cccc(C(F)(F)F)c4)c(Cl)c3)c21
Procedure, shortened: as §1

[11] = compound: CC(C)C1=C2N=C(C=C(N2N=C1)NCC3=CC=CC=C3)NCCCCCCN
Procedure, shortened: as §1

[12] = compound: CC1=C(C(CC(=O)N1)C2=CC=C(C=C2)C(F)(F)F)C(=O)NC3=C(C=C4C(=C3)C=NN4)F
Procedure, shortened: as §1

[13] = compound: CC1=C(C2=C(C=C1)C(=O)C3=CC=CC=C3N2CCCN)C
Procedure, shortened: as §1

[14] = compound: CC1=C(C=C(C=C1)NC(=O)C2=CC(=CC=C2)C(C)(C)C#N)NC3=CC4=C(C=C3)N=CN(C4=O)C
Procedure, shortened: as §1

[15] = compound: CC1=C(C=C(C=C1)NC(=O)C2=CC(=CC=C2)N(C)C)NC(=O)C3=CC=C(C=C3)O
Procedure, shortened: as §1

[16] = compound: CC1=CC=C(C=C1)SC2=C3C=C(SC3=CN=C2)C(=O)N
Procedure, shortened: as §1

Measured: log2 fold change

TIMM44 (UniProt O43615)
inactive: erlotinib -0.019 | [1] -0.02 | [2] -0.008 | [3] -0.019 | [4] 0.041 | [5] -0.012 | [6] 0.03 | [7] -0.019 | [8] 0.004 | IRAK-1-4 Inhibitor I -0.011 | ibrutinib 0.03 | [9] 0.005 | ralimetinib -0.008 | [10] -0.076 | [11] 0.013 | [12] 0.066 | [13] 0.025 | [14] -0.035 | [15] -0.005 | [16] 0.015

THRAP3 (UniProt Q9Y2W1)
inactive: erlotinib -0.017 | [1] 0.014 | [2] -0.023 | [3] -0.012 | [4] 0.002 | [5] 0.015 | [6] -0.024 | [7] 0.005 | [8] 0.006 | IRAK-1-4 Inhibitor I 0.005 | ibrutinib -0.057 | [9] -0.021 | ralimetinib -0.042 | [10] -0.007 | [11] -0.007 | [12] -0.043 | [13] -0.079 | [14] 0.012 | [15] 0.017 | [16] -0.01

THEM6 (UniProt Q8WUY1)
inactive: erlotinib -0.068 | [1] 0.03 | [2] -0.049 | [3] -0.037 | [4] 0.047 | [5] -0.047 | [6] 0.01 | [7] -0.016 | [8] -0.025 | IRAK-1-4 Inhibitor I -0.065 | ibrutinib 0.091 | [9] 0.012 | ralimetinib 0.063 | [10] 0.013 | [11] -0.019 | [12] 0.001 | [13] -0.044 | [14] 0.008 | [15] -0.018 | [16] 0.008

TIMM9 (UniProt Q9Y5J7)
inactive: erlotinib 0.083 | [1] -0.077 | [2] -0.058 | [3] 0.089 | [4] 0.056 | [5] 0.104 | [6] 0.065 | [7] 0.016 | [8] 0.077 | IRAK-1-4 Inhibitor I 0.025 | ibrutinib 0.167 | [9] -0.106 | ralimetinib -0.052 | [10] 0.04 | [11] -0.032 | [12] -0.037 | [13] -0.011 | [14] 0.128 | [15] -0.044 | [16] 0.076

TLK1 isoform 2 (UniProt Q9UKI8)
inactive: erlotinib 0 | [1] -0.029 | [2] -0.024 | [3] -0.013 | [4] -0.007 | [5] -0.016 | [6] 0.145 | [7] 0.007 | [8] 0.099 | IRAK-1-4 Inhibitor I 0.023 | ibrutinib 0.017 | [9] 0.094 | ralimetinib 0.053 | [10] 0.01 | [11] 0.012 | [12] -0.002 | [13] 0.038 | [14] -0.013 | [15] -0.037 | [16] 0

TMED8 (UniProt Q6PL24)
inactive: erlotinib -0.021 | [1] 0 | [2] -0.006 | [3] 0 | [4] 0.108 | [5] -0.056 | [6] -0.009 | [7] 0.008 | [8] 0.08 | IRAK-1-4 Inhibitor I -0.018 | ibrutinib 0.04 | [9] -0.02 | ralimetinib 0.044 | [10] 0.005 | [11] -0.023 | [12] -0.032 | [13] -0.01 | [14] 0.011 | [15] -0.022 | [16] 0.001

Quoted from the entries so far (2 entries):
THEM6 (UniProt Q8WUY1)
inactive: erlotinib -0.068 | [1] 0.03 | [2] -0.049 | [3] -0.037 | [4] 0.047 | [5] -0.047 | [6] 0.01 | [7] -0.016 | [8] -0.025 | IRAK-1-4 Inhibitor I -0.065 | ibrutinib 0.091 | [9] 0.012 | ralimetinib 0.063 | [10] 0.013 | [11] -0.019 | [12] 0.001 | [13] -0.044 | [14] 0.008 | [15] -0.018 | [16] 0.008

TIMM9 (UniProt Q9Y5J7)
inactive: erlotinib 0.083 | [1] -0.077 | [2] -0.058 | [3] 0.089 | [4] 0.056 | [5] 0.104 | [6] 0.065 | [7] 0.016 | [8] 0.077 | IRAK-1-4 Inhibitor I 0.025 | ibrutinib 0.167 | [9] -0.106 | ralimetinib -0.052 | [10] 0.04 | [11] -0.032 | [12] -0.037 | [13] -0.011 | [14] 0.128 | [15] -0.044 | [16] 0.076

(cont.)

TIMM17A (UniProt Q99595)
inactive: erlotinib 0.074 | [1] -0.107 | [2] 0.069 | [3] -0.039 | [4] -0.01 | [5] -0.065 | [6] -0.004 | [7] -0.023 | [8] 0.068 | IRAK-1-4 Inhibitor I 0.102 | ibrutinib 0.022 | [9] -0.011 | ralimetinib -0.038 | [10] -0.134 | [11] -0.064 | [12] 0.001 | [13] 0.002 | [14] 0.06 | [15] -0.011 | [16] -0.011

THNSL1 (UniProt Q8IYQ7)
inactive: erlotinib 0.094 | [1] 0.028 | [2] 0.028 | [3] -0.026 | [4] -0.033 | [5] -0.034 | [6] -0.063 | [7] -0.011 | [8] -0.028 | IRAK-1-4 Inhibitor I 0.002 | ibrutinib -0.019 | [9] -0.007 | ralimetinib 0.016 | [10] -0.076 | [11] -0.011 | [12] 0.002 | [13] 0.032 | [14] 0.03 | [15] -0.026 | [16] -0.001

TMBIM6 isoform 2 (UniProt P55061)
inactive: erlotinib -0.009 | [1] 0.054 | [2] -0.103 | [3] -0.09 | [4] 0.017 | [5] 0.011 | [6] -0.014 | [7] -0.032 | [8] -0.002 | IRAK-1-4 Inhibitor I 0.066 | ibrutinib -0.001 | [9] -0.011 | ralimetinib -0.002 | [10] -0.027 | [11] 0 | [12] -0.026 | [13] -0.02 | [14] 0.011 | [15] -0.028 | [16] -0.017

TMEM14C (UniProt Q9P0S9)
inactive: erlotinib 0.027 | [1] -0.201 | [2] 0.046 | [3] -0.011 | [4] -0.039 | [5] 0.022 | [6] 0.063 | [7] -0.177 | [8] -0.042 | IRAK-1-4 Inhibitor I 0.064 | ibrutinib 0.04 | [9] 0.085 | ralimetinib 0.129 | [10] -0.077 | [11] -0.135 | [12] -0.047 | [13] -0.146 | [14] 0.048 | [15] 0.007 | [16] 0.152

TIMM29 (UniProt Q9BSF4)
inactive: erlotinib -0.018 | [1] -0.085 | [2] 0.021 | [3] -0.018 | [4] -0.093 | [5] 0.032 | [6] -0.036 | [7] -0.036 | [8] -0.015 | IRAK-1-4 Inhibitor I -0.008 | ibrutinib -0.01 | [9] -0.007 | ralimetinib -0.001 | [10] -0.074 | [11] 0.051 | [12] -0.041 | [13] -0.063 | [14] -0.039 | [15] -0.009 | [16] -0.003

TMA16 (UniProt Q96EY4)
inactive: erlotinib -0.065 | [1] 0.009 | [2] -0.049 | [3] 0.007 | [4] 0.032 | [5] 0.02 | [6] 0.014 | [7] 0.055 | [8] 0.009 | IRAK-1-4 Inhibitor I -0.026 | ibrutinib 0.009 | [9] 0.006 | ralimetinib -0.016 | [10] 0.012 | [11] 0.027 | [12] 0.023 | [13] -0.031 | [14] 0.013 | [15] 0.009 | [16] 0.038

TGS1 (UniProt Q96RS0)
inactive: erlotinib -0.023 | [1] -0.007 | [2] 0.014 | [3] 0.035 | [4] -0.043 | [5] 0.006 | [6] -0.041 | [7] 0.033 | [8] 0.002 | IRAK-1-4 Inhibitor I 0.01 | ibrutinib -0.007 | [9] 0.019 | ralimetinib 0.031 | [10] -0.041 | [11] -0.013 | [12] 0.014 | [13] -0.012 | [14] 0.003 | [15] 0.026 | [16] -0.01

TMEM161A (UniProt Q9NX61)
inactive: erlotinib 0.144 | [1] -0.038 | [2] -0.089 | [3] 0.105 | [4] -0.102 | [5] 0.065 | [6] -0.03 | [7] -0.071 | [8] 0.177 | IRAK-1-4 Inhibitor I -0.034 | ibrutinib -0.009 | [9] 0.069 | ralimetinib -0.063 | [10] -0.229 | [11] -0.163 | [12] 0.279 | [13] 0.295 | [14] -0.176 | [15] 0.074 | [16] -0.042

TGM2 (UniProt P21980)
inactive: erlotinib 0.026 | [1] 0.004 | [2] 0.015 | [3] 0.007 | [4] 0.005 | [5] 0.002 | [6] -0.028 | [7] 0.002 | [8] 0.001 | IRAK-1-4 Inhibitor I -0.015 | ibrutinib -0.037 | [9] -0.007 | ralimetinib 0.008 | [10] -0.009 | [11] 0.012 | [12] -0.025 | [13] 0.003 | [14] 0.008 | [15] 0.035 | [16] 0.004

THOC1 (UniProt Q96FV9)
inactive: erlotinib -0.025 | [1] -0.022 | [2] -0.033 | [3] 0.037 | [4] -0.001 | [5] -0.012 | [6] -0.032 | [7] 0.022 | [8] -0.04 | IRAK-1-4 Inhibitor I 0.006 | ibrutinib -0.003 | [9] -0.002 | ralimetinib -0.017 | [10] 0.018 | [11] 0.002 | [12] -0.003 | [13] -0.007 | [14] -0.004 | [15] 0.01 | [16] 0.017
